Assay results: patent US20090117169A1
These are yes or no findings as the source states them, for the method shown. Binding seen in cells or lysates may run through a third protein. Some binding calls cover weakened binding; strength is not graded here.

Chains of the proteins cited; added tags and fusions are not shown. Lines headed by an entry give the natural chain unless they say otherwise; changes in a name come on top. A line that says so, or that is headed by a name, gives the form on record, which may keep a tag or linker.
endogenous Fat1 in rat aortic smooth muscle cells (RASMCs) (Q9WU10, form named): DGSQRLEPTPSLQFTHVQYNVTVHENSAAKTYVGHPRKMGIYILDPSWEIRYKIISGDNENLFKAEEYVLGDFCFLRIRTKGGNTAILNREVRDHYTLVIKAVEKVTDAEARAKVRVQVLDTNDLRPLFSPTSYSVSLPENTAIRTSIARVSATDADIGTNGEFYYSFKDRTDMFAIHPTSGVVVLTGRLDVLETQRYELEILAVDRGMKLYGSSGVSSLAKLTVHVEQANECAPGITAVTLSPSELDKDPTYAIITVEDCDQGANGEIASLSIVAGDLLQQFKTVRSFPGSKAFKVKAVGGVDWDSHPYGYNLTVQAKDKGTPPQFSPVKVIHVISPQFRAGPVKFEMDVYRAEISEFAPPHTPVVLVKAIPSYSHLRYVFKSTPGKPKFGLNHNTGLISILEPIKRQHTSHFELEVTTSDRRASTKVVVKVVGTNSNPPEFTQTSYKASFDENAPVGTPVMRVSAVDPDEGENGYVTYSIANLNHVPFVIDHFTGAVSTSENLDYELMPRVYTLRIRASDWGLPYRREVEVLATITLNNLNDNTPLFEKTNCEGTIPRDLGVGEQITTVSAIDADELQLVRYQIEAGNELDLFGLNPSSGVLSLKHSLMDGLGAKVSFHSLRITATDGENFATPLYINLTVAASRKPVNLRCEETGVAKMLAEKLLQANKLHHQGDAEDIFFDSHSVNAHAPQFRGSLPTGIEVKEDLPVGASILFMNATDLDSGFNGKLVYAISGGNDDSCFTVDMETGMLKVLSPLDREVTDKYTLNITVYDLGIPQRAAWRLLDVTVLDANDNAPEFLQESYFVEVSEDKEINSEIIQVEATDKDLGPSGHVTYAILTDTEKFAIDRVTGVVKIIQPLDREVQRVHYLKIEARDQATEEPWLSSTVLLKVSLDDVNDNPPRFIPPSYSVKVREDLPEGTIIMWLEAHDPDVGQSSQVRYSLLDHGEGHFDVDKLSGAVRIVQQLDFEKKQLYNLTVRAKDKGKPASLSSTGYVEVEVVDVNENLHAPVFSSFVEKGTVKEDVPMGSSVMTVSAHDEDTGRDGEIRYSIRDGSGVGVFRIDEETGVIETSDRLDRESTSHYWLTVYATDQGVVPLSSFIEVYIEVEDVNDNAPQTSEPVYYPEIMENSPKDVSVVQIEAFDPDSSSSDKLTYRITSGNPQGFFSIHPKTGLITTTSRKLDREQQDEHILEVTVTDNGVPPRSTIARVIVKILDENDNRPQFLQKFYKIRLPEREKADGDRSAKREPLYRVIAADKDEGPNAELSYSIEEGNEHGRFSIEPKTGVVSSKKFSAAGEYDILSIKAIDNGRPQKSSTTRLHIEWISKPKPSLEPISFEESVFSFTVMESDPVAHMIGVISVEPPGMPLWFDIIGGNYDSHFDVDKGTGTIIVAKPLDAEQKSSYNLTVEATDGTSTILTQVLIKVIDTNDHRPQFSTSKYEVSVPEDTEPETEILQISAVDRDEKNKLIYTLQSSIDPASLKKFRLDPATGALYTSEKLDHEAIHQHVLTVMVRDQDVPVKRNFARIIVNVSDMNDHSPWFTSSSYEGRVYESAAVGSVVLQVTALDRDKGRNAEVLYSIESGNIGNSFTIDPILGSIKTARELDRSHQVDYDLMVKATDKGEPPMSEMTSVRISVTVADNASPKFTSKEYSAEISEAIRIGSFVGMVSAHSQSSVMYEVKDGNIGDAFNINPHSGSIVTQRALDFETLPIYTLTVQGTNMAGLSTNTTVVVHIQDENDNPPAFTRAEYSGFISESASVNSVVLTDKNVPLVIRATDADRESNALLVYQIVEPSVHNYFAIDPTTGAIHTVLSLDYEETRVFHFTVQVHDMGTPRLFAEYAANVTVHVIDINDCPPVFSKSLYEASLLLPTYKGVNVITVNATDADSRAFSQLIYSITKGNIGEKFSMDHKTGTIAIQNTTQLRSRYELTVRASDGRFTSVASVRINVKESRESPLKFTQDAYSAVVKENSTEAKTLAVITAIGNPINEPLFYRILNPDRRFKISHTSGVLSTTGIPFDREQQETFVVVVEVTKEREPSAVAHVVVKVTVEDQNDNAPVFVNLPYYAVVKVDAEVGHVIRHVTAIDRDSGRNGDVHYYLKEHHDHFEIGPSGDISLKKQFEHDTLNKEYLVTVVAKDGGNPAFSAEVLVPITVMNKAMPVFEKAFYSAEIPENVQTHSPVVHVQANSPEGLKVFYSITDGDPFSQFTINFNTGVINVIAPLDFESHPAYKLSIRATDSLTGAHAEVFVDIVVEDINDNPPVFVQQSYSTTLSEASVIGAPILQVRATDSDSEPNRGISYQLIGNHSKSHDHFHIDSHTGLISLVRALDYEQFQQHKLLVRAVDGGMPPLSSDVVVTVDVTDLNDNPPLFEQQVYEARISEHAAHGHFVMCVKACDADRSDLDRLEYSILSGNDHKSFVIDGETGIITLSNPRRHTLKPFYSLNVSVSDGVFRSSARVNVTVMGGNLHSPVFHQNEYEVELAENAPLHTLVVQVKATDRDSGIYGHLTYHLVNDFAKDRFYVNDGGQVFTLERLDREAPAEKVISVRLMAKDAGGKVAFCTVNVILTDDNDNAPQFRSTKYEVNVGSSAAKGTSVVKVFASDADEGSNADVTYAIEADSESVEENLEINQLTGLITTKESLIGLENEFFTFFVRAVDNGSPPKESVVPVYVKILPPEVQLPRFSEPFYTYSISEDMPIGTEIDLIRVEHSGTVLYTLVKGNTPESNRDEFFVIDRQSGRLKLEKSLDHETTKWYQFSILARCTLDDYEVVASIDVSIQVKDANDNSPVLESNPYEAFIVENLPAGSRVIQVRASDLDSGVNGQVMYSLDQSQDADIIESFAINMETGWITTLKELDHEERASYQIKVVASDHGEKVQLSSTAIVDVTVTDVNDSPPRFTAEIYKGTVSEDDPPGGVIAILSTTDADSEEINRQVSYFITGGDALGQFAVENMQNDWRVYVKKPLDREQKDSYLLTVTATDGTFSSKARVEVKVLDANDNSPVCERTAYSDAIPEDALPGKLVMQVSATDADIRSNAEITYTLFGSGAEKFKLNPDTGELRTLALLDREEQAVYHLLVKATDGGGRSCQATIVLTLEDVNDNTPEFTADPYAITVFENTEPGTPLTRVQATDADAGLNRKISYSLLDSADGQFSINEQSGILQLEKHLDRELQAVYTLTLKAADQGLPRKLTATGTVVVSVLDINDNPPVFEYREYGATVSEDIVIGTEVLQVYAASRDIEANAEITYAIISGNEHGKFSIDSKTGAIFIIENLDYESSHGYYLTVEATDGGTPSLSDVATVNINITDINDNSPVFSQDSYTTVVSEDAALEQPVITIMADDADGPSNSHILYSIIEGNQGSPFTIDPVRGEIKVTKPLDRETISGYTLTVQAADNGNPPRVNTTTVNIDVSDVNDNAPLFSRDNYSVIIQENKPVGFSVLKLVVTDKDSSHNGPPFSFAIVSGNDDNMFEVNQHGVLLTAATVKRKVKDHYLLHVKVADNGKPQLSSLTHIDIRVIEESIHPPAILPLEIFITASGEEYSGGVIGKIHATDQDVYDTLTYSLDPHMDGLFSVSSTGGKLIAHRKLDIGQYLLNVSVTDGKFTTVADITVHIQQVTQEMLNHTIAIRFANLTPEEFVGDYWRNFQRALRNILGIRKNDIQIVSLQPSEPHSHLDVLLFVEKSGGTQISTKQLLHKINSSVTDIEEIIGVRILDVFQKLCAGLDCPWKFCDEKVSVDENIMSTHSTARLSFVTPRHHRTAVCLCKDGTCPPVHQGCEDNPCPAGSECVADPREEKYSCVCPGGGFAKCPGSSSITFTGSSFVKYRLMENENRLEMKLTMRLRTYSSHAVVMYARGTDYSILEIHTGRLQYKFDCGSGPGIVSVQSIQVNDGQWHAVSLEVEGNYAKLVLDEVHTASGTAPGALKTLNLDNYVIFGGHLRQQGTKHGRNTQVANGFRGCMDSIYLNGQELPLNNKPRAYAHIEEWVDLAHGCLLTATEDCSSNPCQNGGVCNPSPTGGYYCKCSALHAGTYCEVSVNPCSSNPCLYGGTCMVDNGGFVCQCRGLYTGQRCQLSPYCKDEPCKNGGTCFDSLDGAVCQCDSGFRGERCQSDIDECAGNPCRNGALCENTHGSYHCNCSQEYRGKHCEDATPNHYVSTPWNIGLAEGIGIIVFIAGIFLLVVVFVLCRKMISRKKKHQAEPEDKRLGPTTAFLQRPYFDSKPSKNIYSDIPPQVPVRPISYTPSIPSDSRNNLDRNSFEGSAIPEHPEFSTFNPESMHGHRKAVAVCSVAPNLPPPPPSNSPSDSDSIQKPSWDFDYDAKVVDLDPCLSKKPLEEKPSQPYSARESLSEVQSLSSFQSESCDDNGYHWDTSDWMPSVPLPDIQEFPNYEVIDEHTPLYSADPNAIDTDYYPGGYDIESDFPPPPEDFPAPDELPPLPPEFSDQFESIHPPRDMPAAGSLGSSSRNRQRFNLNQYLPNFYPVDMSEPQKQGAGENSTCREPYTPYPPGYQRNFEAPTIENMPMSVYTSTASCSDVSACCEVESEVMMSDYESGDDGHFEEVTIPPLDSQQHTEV

Tests used:
[1] = biological target: T1, endogenous β-catenin in rat vascular smooth muscle cells (RASMCs, A7r5) (rat) (UniProt Q9WU82); assay: co-immunoprecipitation of endogenous proteins
T1 sequence (looked up): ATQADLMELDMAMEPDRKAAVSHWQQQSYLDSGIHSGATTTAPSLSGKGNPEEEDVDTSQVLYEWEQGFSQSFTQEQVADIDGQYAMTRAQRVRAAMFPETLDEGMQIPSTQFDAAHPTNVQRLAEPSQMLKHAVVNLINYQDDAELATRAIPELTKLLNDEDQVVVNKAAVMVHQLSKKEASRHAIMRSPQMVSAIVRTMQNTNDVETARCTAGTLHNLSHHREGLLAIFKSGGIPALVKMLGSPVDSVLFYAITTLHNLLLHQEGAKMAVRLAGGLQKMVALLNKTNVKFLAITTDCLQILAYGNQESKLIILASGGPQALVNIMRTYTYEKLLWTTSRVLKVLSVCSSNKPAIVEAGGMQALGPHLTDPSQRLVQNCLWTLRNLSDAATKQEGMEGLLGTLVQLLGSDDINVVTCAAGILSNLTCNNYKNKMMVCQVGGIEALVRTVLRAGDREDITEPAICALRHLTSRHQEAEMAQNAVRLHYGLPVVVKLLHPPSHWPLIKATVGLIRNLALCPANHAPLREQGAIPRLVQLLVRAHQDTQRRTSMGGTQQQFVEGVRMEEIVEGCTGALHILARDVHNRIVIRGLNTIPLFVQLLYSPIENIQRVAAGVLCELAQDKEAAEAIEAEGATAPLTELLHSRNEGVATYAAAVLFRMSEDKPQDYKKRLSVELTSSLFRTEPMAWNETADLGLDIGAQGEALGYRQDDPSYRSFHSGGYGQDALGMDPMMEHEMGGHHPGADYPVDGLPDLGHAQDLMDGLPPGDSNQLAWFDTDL

[2] = biological target: T1, endogenous β-catenin in rat vascular smooth muscle cells (RASMCs, A7r5) (rat); assay: co-immunoprecipitation of endogenous proteins, western blot (FIG. 6C)
[3] = biological target: T1, endogenous β-catenin in rat vascular smooth muscle cells (RASMCs, A7r5) (rat); assay: reciprocal co-immunoprecipitation of endogenous proteins from RASMC lysates, western blot

Measured: binding

endogenous Fat1 in rat aortic smooth muscle cells (RASMCs) (from UniProt Q9WU10 22-4589) (receptor)
binds: [1] | [2] | [3]
